According to the supplement of paper PMC10849652:
This is one part of the list.

Chains of the proteins cited; added tags and fusions are not shown. Lines headed by an entry give the natural chain unless they say otherwise; changes in a name come on top.
UniProt Q6P1X5, whole entry, looked up: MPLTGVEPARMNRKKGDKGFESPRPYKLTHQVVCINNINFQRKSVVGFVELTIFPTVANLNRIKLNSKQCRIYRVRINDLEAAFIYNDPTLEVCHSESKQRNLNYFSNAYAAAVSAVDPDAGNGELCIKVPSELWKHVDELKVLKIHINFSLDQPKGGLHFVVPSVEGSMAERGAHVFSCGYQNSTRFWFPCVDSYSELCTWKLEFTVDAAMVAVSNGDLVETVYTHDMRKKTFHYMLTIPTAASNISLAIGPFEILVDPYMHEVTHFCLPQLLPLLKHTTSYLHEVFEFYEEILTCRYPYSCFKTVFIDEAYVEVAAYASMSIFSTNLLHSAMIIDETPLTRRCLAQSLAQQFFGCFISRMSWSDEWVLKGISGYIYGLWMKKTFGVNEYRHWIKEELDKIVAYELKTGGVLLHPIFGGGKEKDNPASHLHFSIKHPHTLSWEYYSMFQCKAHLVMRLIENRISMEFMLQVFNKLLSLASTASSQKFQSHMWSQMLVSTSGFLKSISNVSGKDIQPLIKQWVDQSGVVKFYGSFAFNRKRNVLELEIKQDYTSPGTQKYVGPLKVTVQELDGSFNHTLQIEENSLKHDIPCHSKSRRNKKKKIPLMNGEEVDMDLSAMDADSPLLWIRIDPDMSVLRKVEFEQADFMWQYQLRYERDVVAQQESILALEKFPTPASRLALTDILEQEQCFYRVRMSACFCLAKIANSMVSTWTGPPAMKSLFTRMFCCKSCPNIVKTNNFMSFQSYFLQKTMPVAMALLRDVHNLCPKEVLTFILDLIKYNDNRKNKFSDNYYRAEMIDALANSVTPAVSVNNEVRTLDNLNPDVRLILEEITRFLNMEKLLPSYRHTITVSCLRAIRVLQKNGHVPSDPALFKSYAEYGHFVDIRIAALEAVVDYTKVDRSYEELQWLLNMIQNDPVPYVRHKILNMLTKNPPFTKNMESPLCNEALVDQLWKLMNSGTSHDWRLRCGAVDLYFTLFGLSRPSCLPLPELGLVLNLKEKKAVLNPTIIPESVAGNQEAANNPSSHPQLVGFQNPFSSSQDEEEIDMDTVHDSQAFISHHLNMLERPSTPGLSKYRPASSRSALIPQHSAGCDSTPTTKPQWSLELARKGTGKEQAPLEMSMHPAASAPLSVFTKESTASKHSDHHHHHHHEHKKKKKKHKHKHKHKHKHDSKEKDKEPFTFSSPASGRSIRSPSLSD
UniProt Q9Y5B9, whole entry, looked up: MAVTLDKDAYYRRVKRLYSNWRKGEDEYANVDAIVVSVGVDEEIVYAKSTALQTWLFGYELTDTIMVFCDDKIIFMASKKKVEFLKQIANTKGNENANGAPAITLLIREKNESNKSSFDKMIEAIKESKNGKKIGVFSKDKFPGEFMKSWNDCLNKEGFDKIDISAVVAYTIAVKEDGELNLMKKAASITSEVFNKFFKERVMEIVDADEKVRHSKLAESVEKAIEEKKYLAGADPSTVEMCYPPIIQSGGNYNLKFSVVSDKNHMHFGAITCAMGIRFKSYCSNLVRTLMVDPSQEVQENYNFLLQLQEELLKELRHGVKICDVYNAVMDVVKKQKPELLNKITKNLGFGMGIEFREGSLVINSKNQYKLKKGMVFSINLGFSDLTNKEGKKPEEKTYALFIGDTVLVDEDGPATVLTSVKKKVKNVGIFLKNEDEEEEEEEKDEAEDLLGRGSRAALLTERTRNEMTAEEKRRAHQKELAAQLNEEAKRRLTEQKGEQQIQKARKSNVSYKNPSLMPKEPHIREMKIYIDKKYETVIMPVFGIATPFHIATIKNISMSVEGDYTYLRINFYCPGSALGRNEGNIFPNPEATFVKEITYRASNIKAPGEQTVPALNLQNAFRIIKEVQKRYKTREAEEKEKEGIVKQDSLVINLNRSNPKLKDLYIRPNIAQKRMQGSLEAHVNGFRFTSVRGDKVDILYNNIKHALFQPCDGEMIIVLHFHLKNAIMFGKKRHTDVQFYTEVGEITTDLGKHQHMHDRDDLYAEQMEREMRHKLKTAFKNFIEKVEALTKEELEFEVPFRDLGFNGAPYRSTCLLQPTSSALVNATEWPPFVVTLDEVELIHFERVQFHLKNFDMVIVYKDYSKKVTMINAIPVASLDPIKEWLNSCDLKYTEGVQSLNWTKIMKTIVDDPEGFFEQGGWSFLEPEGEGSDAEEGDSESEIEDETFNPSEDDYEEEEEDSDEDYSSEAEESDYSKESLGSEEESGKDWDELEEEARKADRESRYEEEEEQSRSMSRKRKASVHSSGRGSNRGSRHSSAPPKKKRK
UniProt P51687: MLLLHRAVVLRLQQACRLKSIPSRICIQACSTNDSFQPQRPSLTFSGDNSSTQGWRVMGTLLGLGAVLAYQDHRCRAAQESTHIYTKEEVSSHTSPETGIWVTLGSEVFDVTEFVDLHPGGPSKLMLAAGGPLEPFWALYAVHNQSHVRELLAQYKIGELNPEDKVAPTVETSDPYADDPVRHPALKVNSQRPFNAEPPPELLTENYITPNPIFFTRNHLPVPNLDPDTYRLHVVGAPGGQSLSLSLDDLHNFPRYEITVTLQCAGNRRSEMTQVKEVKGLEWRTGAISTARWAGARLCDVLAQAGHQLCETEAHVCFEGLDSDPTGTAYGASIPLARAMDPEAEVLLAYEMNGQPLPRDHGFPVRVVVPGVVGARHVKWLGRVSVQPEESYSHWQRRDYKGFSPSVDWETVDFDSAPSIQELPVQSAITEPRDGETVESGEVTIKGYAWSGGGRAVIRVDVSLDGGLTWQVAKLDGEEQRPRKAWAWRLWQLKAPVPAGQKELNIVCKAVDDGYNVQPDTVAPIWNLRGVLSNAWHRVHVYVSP
UniProt Q15526: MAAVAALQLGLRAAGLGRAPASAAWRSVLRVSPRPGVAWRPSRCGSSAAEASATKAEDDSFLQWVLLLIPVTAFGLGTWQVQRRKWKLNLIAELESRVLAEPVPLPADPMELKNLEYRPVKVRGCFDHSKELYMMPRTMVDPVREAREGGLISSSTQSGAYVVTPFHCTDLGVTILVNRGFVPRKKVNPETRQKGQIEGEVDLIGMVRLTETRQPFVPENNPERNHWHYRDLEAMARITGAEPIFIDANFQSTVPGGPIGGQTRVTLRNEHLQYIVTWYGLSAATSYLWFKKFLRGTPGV
UniProt P50225: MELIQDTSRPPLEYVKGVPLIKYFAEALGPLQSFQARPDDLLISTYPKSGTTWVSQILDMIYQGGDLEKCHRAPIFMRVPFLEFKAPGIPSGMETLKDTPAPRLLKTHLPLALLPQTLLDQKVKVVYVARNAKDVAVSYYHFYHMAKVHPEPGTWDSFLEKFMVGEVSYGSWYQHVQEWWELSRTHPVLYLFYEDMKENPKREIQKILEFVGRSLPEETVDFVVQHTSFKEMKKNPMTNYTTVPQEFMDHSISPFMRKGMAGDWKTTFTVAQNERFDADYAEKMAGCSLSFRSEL
UniProt P27105: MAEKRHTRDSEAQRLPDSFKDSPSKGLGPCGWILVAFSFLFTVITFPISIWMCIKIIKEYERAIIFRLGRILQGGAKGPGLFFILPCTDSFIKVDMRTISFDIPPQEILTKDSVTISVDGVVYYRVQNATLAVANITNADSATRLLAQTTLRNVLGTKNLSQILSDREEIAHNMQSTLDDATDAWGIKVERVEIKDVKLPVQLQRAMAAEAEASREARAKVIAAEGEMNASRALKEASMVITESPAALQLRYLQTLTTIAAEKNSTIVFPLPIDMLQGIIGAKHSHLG
UniProt Q9Y6J9: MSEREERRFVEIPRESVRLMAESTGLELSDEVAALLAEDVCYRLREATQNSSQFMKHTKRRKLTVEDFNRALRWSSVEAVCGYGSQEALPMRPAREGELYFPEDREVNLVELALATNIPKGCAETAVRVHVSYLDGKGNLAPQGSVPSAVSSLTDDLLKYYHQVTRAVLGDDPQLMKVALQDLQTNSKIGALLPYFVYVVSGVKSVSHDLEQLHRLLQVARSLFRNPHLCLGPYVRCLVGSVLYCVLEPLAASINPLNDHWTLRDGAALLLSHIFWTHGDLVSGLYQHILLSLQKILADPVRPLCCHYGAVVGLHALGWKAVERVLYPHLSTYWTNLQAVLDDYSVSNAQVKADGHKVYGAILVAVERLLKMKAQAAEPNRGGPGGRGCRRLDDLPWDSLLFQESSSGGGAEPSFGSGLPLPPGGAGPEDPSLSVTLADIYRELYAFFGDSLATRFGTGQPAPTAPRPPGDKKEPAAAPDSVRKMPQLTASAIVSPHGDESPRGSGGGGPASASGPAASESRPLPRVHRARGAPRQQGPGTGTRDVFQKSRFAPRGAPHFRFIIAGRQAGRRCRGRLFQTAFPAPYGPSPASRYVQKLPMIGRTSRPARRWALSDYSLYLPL
UniProt Q8N300: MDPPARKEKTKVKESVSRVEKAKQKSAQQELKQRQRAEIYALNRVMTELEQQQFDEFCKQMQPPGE
UniProt Q15544, whole entry, looked up: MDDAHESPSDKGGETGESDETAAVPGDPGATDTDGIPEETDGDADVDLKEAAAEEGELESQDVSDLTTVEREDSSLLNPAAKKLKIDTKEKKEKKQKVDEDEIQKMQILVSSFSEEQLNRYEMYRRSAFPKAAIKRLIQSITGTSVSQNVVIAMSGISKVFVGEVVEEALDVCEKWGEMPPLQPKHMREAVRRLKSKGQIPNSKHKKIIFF
UniProt P56962: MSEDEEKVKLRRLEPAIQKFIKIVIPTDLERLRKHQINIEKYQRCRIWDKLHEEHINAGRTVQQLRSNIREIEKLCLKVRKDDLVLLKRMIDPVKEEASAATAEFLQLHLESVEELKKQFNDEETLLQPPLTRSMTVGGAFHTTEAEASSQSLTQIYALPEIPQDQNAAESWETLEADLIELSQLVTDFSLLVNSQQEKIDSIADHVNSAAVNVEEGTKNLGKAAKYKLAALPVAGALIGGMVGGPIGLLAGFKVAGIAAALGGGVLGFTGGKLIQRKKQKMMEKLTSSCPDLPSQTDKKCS
UniProt Q8NBK3: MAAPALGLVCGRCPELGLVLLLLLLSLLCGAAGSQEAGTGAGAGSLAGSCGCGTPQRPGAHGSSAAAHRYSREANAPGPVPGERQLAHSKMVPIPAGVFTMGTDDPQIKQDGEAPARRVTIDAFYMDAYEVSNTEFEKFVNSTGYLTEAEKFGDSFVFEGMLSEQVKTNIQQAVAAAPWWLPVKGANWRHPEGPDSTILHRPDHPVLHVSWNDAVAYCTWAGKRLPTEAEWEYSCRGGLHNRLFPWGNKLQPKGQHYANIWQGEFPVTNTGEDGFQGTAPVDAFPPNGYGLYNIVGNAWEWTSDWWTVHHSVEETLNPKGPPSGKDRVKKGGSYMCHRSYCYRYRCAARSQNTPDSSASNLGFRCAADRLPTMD
UniProt Q15543, whole entry, looked up: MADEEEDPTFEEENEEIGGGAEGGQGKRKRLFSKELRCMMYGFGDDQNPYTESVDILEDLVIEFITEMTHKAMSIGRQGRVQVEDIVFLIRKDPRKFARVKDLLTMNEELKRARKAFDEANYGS
UniProt O15400: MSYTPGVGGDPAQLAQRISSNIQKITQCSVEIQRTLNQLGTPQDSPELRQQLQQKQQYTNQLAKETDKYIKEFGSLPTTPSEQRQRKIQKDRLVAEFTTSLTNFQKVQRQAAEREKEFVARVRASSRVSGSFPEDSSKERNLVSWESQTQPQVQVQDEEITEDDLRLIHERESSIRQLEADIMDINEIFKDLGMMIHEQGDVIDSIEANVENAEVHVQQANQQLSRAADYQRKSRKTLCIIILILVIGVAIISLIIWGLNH
UniProt O94901, whole entry, looked up: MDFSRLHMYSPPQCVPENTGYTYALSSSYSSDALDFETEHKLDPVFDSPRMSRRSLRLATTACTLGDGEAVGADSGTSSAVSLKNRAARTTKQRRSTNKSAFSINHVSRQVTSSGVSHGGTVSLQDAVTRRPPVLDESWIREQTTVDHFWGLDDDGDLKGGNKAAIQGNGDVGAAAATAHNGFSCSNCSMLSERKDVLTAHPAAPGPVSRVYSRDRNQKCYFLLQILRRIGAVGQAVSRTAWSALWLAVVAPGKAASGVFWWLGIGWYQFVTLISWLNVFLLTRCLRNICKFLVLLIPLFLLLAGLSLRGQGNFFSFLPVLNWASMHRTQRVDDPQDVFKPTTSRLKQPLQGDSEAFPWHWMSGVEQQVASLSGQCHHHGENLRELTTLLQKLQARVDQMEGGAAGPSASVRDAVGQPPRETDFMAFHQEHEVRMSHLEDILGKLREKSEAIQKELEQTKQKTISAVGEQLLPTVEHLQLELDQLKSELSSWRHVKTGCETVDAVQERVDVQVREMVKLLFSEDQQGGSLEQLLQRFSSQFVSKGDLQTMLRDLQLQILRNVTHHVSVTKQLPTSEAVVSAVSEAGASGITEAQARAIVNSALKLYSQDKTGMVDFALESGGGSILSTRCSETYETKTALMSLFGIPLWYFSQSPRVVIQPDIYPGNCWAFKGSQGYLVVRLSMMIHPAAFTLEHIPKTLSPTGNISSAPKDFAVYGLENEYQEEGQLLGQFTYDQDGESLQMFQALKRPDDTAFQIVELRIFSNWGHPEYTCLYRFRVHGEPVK

Tests used:
Assay in all cases: log2 fold change, soluble protein after heating vs DMSO (PISA); higher = thermal stabilisation; K562 cells, 10 uM, 30 min; active = over 0.2 and 3.5 SD of the protein, either way, in both replicates (recomputed)
[1] = compound: CC1=C(C=C(C=C1)NC(=O)C2=CC(=CC=C2)C(C)(C)C#N)NC3=CC4=C(C=C3)N=CN(C4=O)C
Outline: (§1)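 Thermal stability values are relative to control samples and come from duplicates. They are expressed as log2 fold changes. For measurement, K562 cells (2×10^6 cells/mL) received 10 μM compound for 30 min, and aliquots were heated for 3 min over 48°C-58°C, pooled, and extracted at 4°C in PBS with 0.5% NP-40. Soluble protein, the supernatant after 21,000xg for 90 min, was quantified by TMTpro 16plex LC-MS/MS with equalised channel sums.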

[2] = compound: CC1=C(C=C(C=C1)NC(=O)C2=CC(=CC=C2)N(C)C)NC(=O)C3=CC=C(C=C3)O
Outline: as §1

[3] = compound: CC1=CC=C(C=C1)SC2=C3C=C(SC3=CN=C2)C(=O)N
Outline: as §1

[4] = compound: CC1=NC(=CC=C1)C2=C(N=C(N2)C(C)(C)C)C3=CC4=NC=CN=C4C=C3
Outline: as §1

[5] = compound: CCCCN(Cc1ccc(C(=O)NO)cc1)C(=O)Nc1ccccc1 [Nexturastat A]
Outline: as §1

[6] = compound: CCCS(=O)(=O)Nc1ccc(F)c(C(=O)c2c[nH]c3ncc(-c4ccc(Cl)cc4)cc23)c1F [vemurafenib]
Outline: as §1

[7] = compound: CCCS(=O)(=O)Nc1ccc(F)c(C(=O)c2c[nH]c3ncc(Cl)cc23)c1F
Outline: as §1

[8] = compound: CCCc1cc(C)[nH]c(=O)c1CNC(=O)c1cc(-c2ccnc(N3CCN(C)CC3)c2)cc2c1cnn2C(C)C
Outline: as §1

[9] = compound: CCN(CCCOc1ccc2c(Nc3cc(CC(=O)Nc4cccc(F)c4)[nH]n3)ncnc2c1)CCOP(=O)(O)O [barasertib]
Outline: as §1

[10] = compound: CC[C@@H]1C(=O)N(C)c2cnc(Nc3ccc(C(=O)NC4CCN(C)CC4)cc3OC)nc2N1C1CCCC1
Outline: as §1

[11] = compound: CC[C@@H]1C(=O)N(C)c2cnc(Nc3ccc(C(=O)N[C@H]4CC[C@H](N5CCN(CC6CC6)CC5)CC4)cc3OC)nc2N1C(C)C [volasertib]
Outline: as §1

[12] = compound: CC[C@H](C)N1C=C(C2=C(C=C(C=C21)C3=CN=C(C=C3)N4CCNCC4)C(=O)NCC5=C(C=C(NC5=O)C)C)C
Outline: as §1

[13] = compound: CC[C@H](C)[C@@H](C(=O)N[C@@H]([C@@H](C)O)C(=O)N[C@@H](CC(C)C)C(=O)[C@]1(CO1)C)NC(=O)[C@H]([C@@H](C)CC)N(C)C(=O)C [epoxomicin]
Outline: as §1

[14] = compound: CCn1cc(-c2ccnc3[nH]c(-c4cccc(CN(C)C)c4)cc23)c(-c2ccc(NC(=O)N(C)C)cc2)n1
Outline: as §1

[15] = compound: CN(C)CC(=O)Nc1ccc2[nH]c(=O)c3ccccc3c2c1
Outline: as §1

[16] = compound: CN(CCOC1=CC=C(C=C1)C[C@H]2C(=O)NC(=O)S2)C3=CC=CC=N3 (racemic) [rosiglitazone]
Outline: as §1

[17] = compound: CN1C2=C(C3=C1C(=O)N(N=C3)CC4=CC(=CC=C4)N)SC(=C2)S(=O)C
Outline: as §1

[18] = compound: CN1CCC(CNc2ccc3ncc(-c4cccc(OC(F)(F)F)c4)n3n2)CC1
Outline: as §1

[19] = compound: CCN(CC)Cc1ccc2cc(COC(=O)Nc3ccc(C(=O)NO)cc3)ccc2c1 [givinostat]
Outline: as §1

[20] = compound: CCn1c(C(=O)N(C2CC2)C2CC2)cc2c3c(ncn3C)c(Nc3cc(C)n(C)n3)nc21
Outline: as §1

Measured: log2 fold change

TAF2 (UniProt Q6P1X5)
inactive: [1] 0.006 | [2] 0.028 | [3] 0.042 | [4] -0.199 | [5] -0.024 | [6] -0.078 | [7] -0.024 | [8] 0.097 | [9] -0.074 | [10] -0.016 | [11] -0.012 | [12] 0.055 | [13] -0.14 | [14] 0.132 | [15] -0.013 | [16] -0.013 | [17] 0.095 | [18] -0.193

SUPT16H (UniProt Q9Y5B9)
inactive: [1] 0.082 | [2] -0.081 | [3] 0.01 | [4] 0.102 | [5] -0.019 | [6] 0.186 | [7] 0.093 | [8] 0.061 | [19] 0.223 | [9] 0.187 | [10] -0.426 | [11] -0.363 | [12] 0.095 | [13] 0.085 | [14] -0.089 | [15] 0.285 | [17] -0.02 | [18] -0.198

SYNE1 (UniProt Q8NF91)
inactive: [1] -0.126 | [2] -0.051 | [4] -0.17 | [6] -0.045 | [8] -0.044 | [19] 0.199 | [9] 0.047 | [10] -0.01 | [12] -0.048 | [13] 0.047 | [14] -0.113 | [15] 0.042 | [17] 0.051 | [18] -0.208
active: [5] 0.612

STK3 isoform 2 (UniProt Q13188)
inactive: [1] -0.046 | [2] 0.004 | [3] -0.027 | [4] 0.079 | [5] -0.004 | [6] -0.048 | [7] -0.02 | [8] 0.025 | [19] -0.003 | [9] -0.01 | [11] 0.001 | [12] 0.02 | [13] -0.002 | [20] 0.007 | [14] -0.005 | [15] 0.036 | [16] 0.034 | [17] -0.018 | [18] -0.013

Looked up one by one from above (2):
TAF2 (UniProt Q6P1X5)
inactive: [1] 0.006 | [2] 0.028 | [3] 0.042 | [4] -0.199 | [5] -0.024 | [6] -0.078 | [7] -0.024 | [8] 0.097 | [9] -0.074 | [10] -0.016 | [11] -0.012 | [12] 0.055 | [13] -0.14 | [14] 0.132 | [15] -0.013 | [16] -0.013 | [17] 0.095 | [18] -0.193

SUPT16H (UniProt Q9Y5B9)
inactive: [1] 0.082 | [2] -0.081 | [3] 0.01 | [4] 0.102 | [5] -0.019 | [6] 0.186 | [7] 0.093 | [8] 0.061 | [19] 0.223 | [9] 0.187 | [10] -0.426 | [11] -0.363 | [12] 0.095 | [13] 0.085 | [14] -0.089 | [15] 0.285 | [17] -0.02 | [18] -0.198

The results go on:

STRIP2 (UniProt Q9ULQ0)
inactive: [1] 0.096 | [2] 0.008 | [3] -0.054 | [5] -0.082 | [6] -0.037 | [7] 0.003 | [8] -0.026 | [19] 0.072 | [9] 0.09 | [10] 0.028 | [11] -0.189 | [12] -0.106 | [13] -0.05 | [20] -0.036 | [14] -0.036 | [15] 0.053 | [16] 0.061 | [17] -0.213 | [18] -0.04

SUOX (UniProt P51687)
inactive: [1] -0.012 | [2] -0.002 | [3] -0.007 | [5] -0.021 | [6] -0.046 | [7] -0.051 | [8] 0.023 | [19] -0.033 | [9] 0.007 | [10] 0.003 | [11] -0.04 | [12] -0.02 | [13] 0.013 | [14] 0 | [15] 0.005 | [17] -0.07
active: [4] -0.334 | [18] -0.31

SURF1 (UniProt Q15526)
active: [11] -0.274 | [18] -0.311
inactive: [1] 0.045 | [2] -0.008 | [3] -0.019 | [4] 0.087 | [5] -0.033 | [6] 0.042 | [7] 0.124 | [8] -0.01 | [19] -0.01 | [9] 0.027 | [10] -0.085 | [12] -0.055 | [13] 0.012 | [14] -0.059 | [15] 0.013 | [17] -0.016

SULT1A1 (UniProt P50225)
inactive: [1] 0.015 | [2] 0.162 | [3] -0.022 | [4] 0.025 | [5] -0.023 | [6] 0.135 | [7] 0.037 | [8] 0.092 | [19] 0.044 | [9] 0.068 | [10] -0.159 | [12] 0.091 | [13] 0.026 | [14] -0.106 | [15] 0.105 | [17] 0.072 | [18] -0.208
active: [11] -0.445

SUCLA2 (UniProt Q9P2R7)
inactive: [1] -0.038 | [2] -0.018 | [3] 0.003 | [4] 0.06 | [5] -0.083 | [6] 0.047 | [7] 0.008 | [8] -0.02 | [19] -0.003 | [9] 0.064 | [10] 0.013 | [11] -0.105 | [12] 0.052 | [13] 0.016 | [14] -0.049 | [15] 0.018 | [17] -0.071 | [18] -0.05

STOM (UniProt P27105)
active: [18] 0.317
inactive: [1] -0.035 | [2] 0.025 | [3] -0.041 | [4] -0.002 | [5] 0.007 | [6] 0.01 | [7] -0.053 | [8] -0.092 | [19] 0.005 | [9] -0.017 | [10] 0.087 | [11] 0.096 | [12] -0.08 | [13] -0.006 | [14] -0.164 | [15] -0.057 | [17] 0.085

TAF6L (UniProt Q9Y6J9)
active: [11] -0.537
inactive: [1] -0.042 | [2] 0.114 | [3] -0.055 | [7] -0.059 | [8] 0.091 | [19] 0.075 | [12] 0.118 | [14] -0.04 | [17] 0.081 | [18] -0.126

SVBP (UniProt Q8N300)
inactive: [1] -0.129 | [2] -0.006 | [3] 0.026 | [5] -0.054 | [6] -0.014 | [7] -0.065 | [8] -0.026 | [9] -0.173 | [10] 0.032 | [11] 0.046 | [13] 0.087 | [14] -0.15 | [15] 0.02 | [16] 0.067 | [17] -0.074 | [18] -0.041

TAF11 (UniProt Q15544)
inactive: [1] -0.104 | [2] 0.046 | [3] 0 | [7] -0.029 | [8] 0.067 | [19] 0.039 | [9] -0.041 | [11] 0.039 | [20] -0.088 | [14] 0.035 | [16] 0.009 | [17] 0.046 | [18] 0.002

STX17 (UniProt P56962)
active: [11] -0.357
inactive: [1] -0.036 | [2] -0.064 | [3] -0.023 | [4] 0.039 | [5] 0.126 | [6] 0.12 | [7] 0.12 | [8] -0.07 | [19] 0.152 | [9] 0.011 | [10] -0.273 | [12] -0.06 | [13] 0.062 | [14] 0.011 | [15] -0.02 | [17] -0.126 | [18] -0.278

SUMF1 isoform 3 (UniProt Q8NBK3)
inactive: [1] 0.01 | [2] 0.136 | [3] 0.002 | [4] -0.089 | [5] -0.081 | [6] 0.07 | [7] -0.068 | [8] 0.115 | [19] -0.251 | [11] -0.017 | [12] 0.106 | [13] 0.017 | [20] -0.008 | [14] 0.013 | [15] -0.243 | [17] -0.026 | [18] 0.11

TAF13 (UniProt Q15543)
inactive: [1] 0.058 | [2] -0.023 | [5] -0.011 | [6] 0.093 | [8] 0.027 | [13] 0.047 | [14] 0.229 | [15] -0.057 | [17] -0.063 | [18] 0.243

SUDS3 (UniProt Q9H7L9)
inactive: [1] 0.038 | [2] -0.191 | [4] -0.125 | [5] -0.048 | [6] -0.132 | [8] 0.042 | [19] -0.137 | [9] 0.069 | [10] 0.017 | [12] -0.056 | [13] -0.174 | [20] 0.045 | [15] 0.012 | [16] -0.029 | [17] -0.109

SUCO (UniProt Q9UBS9)
inactive: [1] -0.018 | [2] -0.08 | [3] 0.001 | [4] 0.046 | [5] 0.138 | [6] -0.244 | [7] -0.014 | [8] 0.533 | [19] 0.184 | [10] 0.02 | [11] -0.115 | [13] -0.02 | [20] -0.06 | [14] 0.021 | [15] -0.087 | [17] 0.148 | [18] 0.021

STX7 (UniProt O15400)
inactive: [1] -0.003 | [2] 0.025 | [3] -0.002 | [4] 0.055 | [5] -0.023 | [6] -0.036 | [7] 0 | [8] 0 | [19] -0.002 | [9] -0.02 | [10] -0.021 | [11] 0.057 | [12] -0.03 | [13] -0.008 | [14] 0.094 | [15] -0.006 | [17] 0.005 | [18] -0.116

SUN1 isoform 9 (UniProt O94901)
inactive: [1] -0.164 | [2] 0.047 | [3] 0.029 | [4] 0.04 | [5] 0.11 | [6] -0.21 | [7] -0.005 | [8] 0.037 | [19] 0.078 | [10] 0.13 | [11] 0.018 | [12] -0.065 | [13] -0.021 | [14] 0.135 | [15] 0.002 | [17] 0.037 | [18] -0.111
